Test results taken from the supplement of paper PMC8975748.
Structures can show the parent of a compound that is named as a salt. ± gives the standard deviation of the averaged measurements. The list shows a part of the results. These are raw signals, not scaled to a control.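 One yeast strain harboring four plasmids, each bearing a fluorescent protein plus an amino-acid or uracil synthesis gene, founds the community. Random loss of plasmids produces mixed prototroph and auxotroph subpopulations. Cells were fixed, then counted with automated confocal fluorescence imaging, with DMSO-treated wells as vehicle reference.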 Numbered stars: 1 amine (or outer) side, 2 acyl side, 3 side chain; on linkers, the order of the positions; unused ones are H or OH. Bridge positions count the residues as written; N and C are the ends. Square brackets hold non-standard residues; d marks the D form. Peptide text beside a SMILES is read from it. * marks the point of attachment. hTyr(3S-OH,4S-OH,3'-OSO3H) = N[C@H](C(=O)O)[C@H](O)[C@@H](O)c1ccc(O)c(OS(=O)(=O)O)c1; Orn(4R-OH,5R-OH) = O=C([C@H](C[C@@H](O)[C@@H](O)N[*:3])N[*:1])[*:2]; Pro(3S-OH,4S-Me) = C[C@H]1CN[C@H](C(=O)O)[C@H]1O; X2 = CCCCCOc1ccc(-c2cc(-c3ccc(C(=O)*)cc3)no2)cc1; Gln(3R-OH) = NC(=O)C[C@@H](O)[C@H](N)C(=O)O; Hyp = O=C(O)[C@@H]1C[C@@H](O)CN1

Test system: Saccharomyces cerevisiae BY4741 SeMeCo community
Experiment: imaged cell count per well (cells); higher = more cells
Details: 10 µM; 24 h; SM minimal medium
Description: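 Same SeMeCo high-content imaging drug screen: Selleck FDA-approved drugs at 10 µM, 24 h in SM medium, 384-well plates, 3 replicates.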

Structure (SMILES) | imaged cell count per well
CCCCCOc1ccc(-c2cc(-c3ccc(C(=O)N[C@H]4C[C@@H](O)[C@@H](O)NC(=O)[C@@H]5[C@@H](O)[C@@H](C)CN5C(=O)[C@H]([C@H](O)CC(N)=O)NC(=O)[C@H]([C@H](O)[C@@H](O)c5ccc(O)c(OS(=O)(=O)O)c5)NC(=O)[C@@H]5C[C@@H](O)CN5C(=O)[C@H]([C@@H](C)O)NC4=O)cc3)no2)cc1 [Micafungin Sodium] (X2-[Orn(4R-OH,5R-OH)]T[Hyp][hTyr(3S-OH,4S-OH,3'-OSO3H)][Gln(3R-OH)][Pro(3S-OH,4S-Me)]; lactam 1-C) | 1010 ± 330
O=C(O)C[C@H](O)C[C@H](O)/C=C/c1c(C2CC2)nc2ccccc2c1-c1ccc(F)cc1 [Pitavastatin Calcium] | 13300 ± 1900
Cc1cc(O)cc(C)c1Cl [Chloroxylenol] | 19700 ± 7200
COc1ccccc1OCC(O)CN1CCN(CC(=O)Nc2c(C)cccc2C)CC1 (stereo not drawn) [Ranolazine] | 21100 ± 2000
CCN(CC)CC#CCOC(=O)C(O)(c1ccccc1)C1CCCCC1 (stereo not drawn) [Oxybutynin chloride] | 23800 ± 2900
NS(=O)(=O)Cc1noc2ccccc12 [Zonisamide] | 21100 ± 7800
O=c1[nH]cc(F)c(=O)[nH]1 [Fluorouracil (5-Fluoracil, 5-FU)] | 1850 ± 150
Cc1c(Nc2ncccc2C(=O)O)cccc1C(F)(F)F [Flunixin Meglumin] | 22500 ± 2700
CCCC1CC(C(=O)NC(C(C)Cl)C2OC(SC)C(O)C(O)C2O)N(C)C1 (stereo not drawn) [Clindamycin alcoholate] | 30600 ± 1200
CN[C@H]1C(=O)N[C@@H]2Cc3ccc(cc3)Oc3cc4cc(c3O[C@@H]3O[C@H](C(=O)O)[C@@H](O)[C@H](O)[C@H]3NC(=O)CCCCCCCCC(C)C)Oc3ccc(cc3Cl)[C@@H](O)[C@@H]3NC(=O)[C@H](NC(=O)[C@@H]4NC(=O)[C@@H](NC2=O)c2cc(cc(O)c2Cl)Oc2cc1ccc2O)c1ccc(O)c(c1)-c1c(O[C@H]2O[C@H](CO)[C@@H](O)[C@H](O)[C@@H]2O)cc(O)cc1[C@@H](C(=O)NCCCN(C)C)NC3=O [Dalbavancin] | 21400 ± 3500
NC(=O)OCC(COC(N)=O)c1ccccc1 [Felbamate] | 27100 ± 2000
CC1CCc2c(N3CCC(O)CC3)c(F)cc3c(=O)c(C(=O)O)cn1c23 (stereo not drawn) [Nadifloxacin] | 21700 ± 6600
COc1ccc2cc(CCC(C)=O)ccc2c1 [Nabumetone] | 26200 ± 1400
COc1ccc(CCN(C)CCCC(C#N)(c2ccc(OC)c(OC)c2)C(C)C)cc1OC (stereo not drawn) [Verapamil HCl] | 21300 ± 4100
Oc1c(Cl)cc(Cl)cc1Sc1cc(Cl)cc(Cl)c1O [Bithionol] | 6690 ± 1600
COc1cc(C(C)=O)ccc1OCCCN1CCC(c2noc3cc(F)ccc23)CC1 [Iloperidone] | 22200 ± 4300
Oc1ccc(Cl)c2cccnc12 [Cloxiquine] | 759 ± 220
CCN(CC)CCOC(=O)c1ccc(N)cc1 [Procaine] | 28200 ± 4800
CC[C@@]1(O)C(=O)OCc2c1cc1n(c2=O)Cc2cc3cc(O)ccc3nc2-1 [Hydroxy Camptothecine] | 24200 ± 3200

Structure (SMILES) | imaged cell count per well
CCCCc1oc2ccccc2c1C(=O)c1cc(I)c(OCCN(CC)CC)c(I)c1 [Amiodarone HCl] | 9890 ± 2700
C#C[C@]1(O)CC[C@H]2[C@@H]3CCC4=Cc5oncc5C[C@]4(C)[C@H]3CC[C@@]21C [Danazol] | 29300 ± 5100
NC(=O)c1cn(Cc2c(F)cccc2F)nn1 [Rufinamide] | 27600 ± 5500
Nc1nc(/C(=C/CC(=O)O)C(=O)N[C@@H]2C(=O)N3C(C(=O)O)=CCS[C@H]23)cs1 [Ceftibuten dihydrate] | 17400 ± 5300
CN1CC2c3ccccc3Oc3ccc(Cl)cc3C2C1 (stereo not drawn) [Asenapine maleate] | 23900 ± 4000
Nc1ccc(S(=O)(=O)Nc2cnc3ccccc3n2)cc1 [Sulfaquinoxaline sodium] | 25900 ± 4600
CO[C@H]1C[C@@H]2CC[C@@H](C)[C@@](O)(O2)C(=O)C(=O)N2CCCC[C@H]2C(=O)O[C@H]([C@H](C)C[C@@H]2CC[C@H](n3cnnn3)[C@H](OC)C2)CC(=O)[C@H](C)/C=C(\C)[C@@H](O)[C@@H](OC)C(=O)[C@H](C)C[C@H](C)/C=C/C=C/C=C/1C [Zotarolimus(ABT-578)] | 7120 ± 2500
Cn1nnc(-c2ccc(-c3ccc(N4C[C@H](COP(=O)(O)O)OC4=O)cc3F)cn2)n1 [Tedizolid Phosphate] | 25000 ± 5100
Oc1c(Br)cc(Br)c2cccnc12 [Broxyquinoline] | 859 ± 190
Cc1cccc(C)c1OCC(C)N (stereo not drawn) [Mexiletine HCl] | 26200 ± 3300
Cc1onc(-c2ccccc2Cl)c1C(=O)N[C@@H]1C(=O)N2[C@@H]1SC(C)(C)[C@@H]2C(=O)O [Cloxacillin Sodium] | 18200 ± 6500
CC1(C)S[C@@H]2[C@H](NC(=O)[C@H](NC(=O)N3CCNC3=O)c3ccccc3)C(=O)N2[C@H]1C(=O)O [Azlocillin sodium salt] | 26000 ± 9400
O=C(NCCO[N+](=O)[O-])c1cccnc1 [Nicorandil] | 26300 ± 3700
CCN(CC)CCNC(=O)c1cc(Cl)c(N)cc1OC [Metoclopramide] | 27400 ± 6400
CCCNC(C)C(=O)Nc1ccccc1C (stereo not drawn) [Prilocaine] | 18600 ± 8700
Cc1c(C(N)=O)cc([N+](=O)[O-])cc1[N+](=O)[O-] [Dinitolmide] | 24100 ± 4900
C[C@@H](c1ncncc1F)[C@](O)(Cn1cncn1)c1ccc(F)cc1F [Voriconazole] | 2370 ± 1500
CN1CCN(CCCN2c3ccccc3Sc3ccc(Cl)cc32)CC1 [Prochlorperazine dimaleate salt] | 21500 ± 6100
Cc1nc(NC(=O)N2CCC[C@H]2C(N)=O)sc1-c1ccnc(C(C)(C)C(F)(F)F)c1 [Alpelisib (BYL719)] | 20600 ± 4900

Copied from the list.
For imaged cell count per well, `CC1(C)S[C@@H]2[C@H](NC(=O)[C@H](NC(=O)N3CCNC3=O)c3ccccc3)C(=O)N2[C@H]1C(=O)O` [Azlocillin sodium salt] reads 26000 ± 9400
For imaged cell count per well, `CCCNC(C)C(=O)Nc1ccccc1C` (stereo not drawn) [Prilocaine] reads 18600 ± 8700
For imaged cell count per well, `CO[C@H]1C[C@@H]2CC[C@@H](C)[C@@](O)(O2)C(=O)C(=O)N2CCCC[C@H]2C(=O)O[C@H]([C@H](C)C[C@@H]2CC[C@H](n3cnnn3)[C@H](OC)C2)CC(=O)[C@H](C)/C=C(\C)[C@@H](O)[C@@H](OC)C(=O)[C@H](C)C[C@H](C)/C=C/C=C/C=C/1C` [Zotarolimus(ABT-578)] reads 7120 ± 2500
